Results deposited as PubChem BioAssay AID504808 (Drosophila RNAi Screening Center, 2011)

Test: 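Chromatin factors that keep E2F targets switched off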 (primary screen)
Cells: Drosophila S2 cells
Knock-down reagent: long dsRNA against Drosophila genes
Read-out: 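Firefly luciferase driven by E2F sites, normalised to Renilla luciferase on the same minimal promoter, measured by plate reader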
Scale: E2F firefly: higher = more E2F reporter activity; Renilla normaliser: higher = more normaliser reporter signal
Hit rule: 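Called active if the normalised E2F reporter went up by over 50%; the cutoff is arbitrary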
In all, the deposit lists about 21,000 reagents; this is an unselected part of those with a known target gene and a result. Of all reagents, 18 (0.084%) are marked active. 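Raw counts without plate normalisation, one of two replicates; the ratio scores behind the calls were not deposited.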 Reagents against one gene are numbered here. Names joined by + are all predicted targets of the reagent. The record does not give: the amount of reagent, the time to read-out.

| gene knocked down | reagent no. | E2F firefly, rep 1 | Renilla normaliser, rep 1 | call |
| --- | --- | --- | --- | --- |
| CG5890 | 1 | 95739 | 5688 | inactive |
| prel | 1 | 2850 | 203 | inactive |
| ry | 1 | 79588 | 3492 | inactive |
| CG3815 | 1 | 7378 | 640 | inactive |
| scrt | 1 | 66336 | 3467 | inactive |
| MED18 | 1 | 1.26e5 | 6452 | inactive |
| CG13949 | 1 | 1.65e5 | 6309 | inactive |
| CG8661 | 1 | 1.53e5 | 5488 | inactive |
| Nup358 | 1 | 63677 | 4639 | inactive |
| Rhp | 1 | 1.60e5 | 6145 | inactive |
| KFase | 1 | 1.61e5 | 5431 | inactive |
| Cortactin | 1 | 65457 | 3372 | inactive |
| CG14830 | 1 | 1.44e5 | 5200 | inactive |
| CG14830 | 2 | 98240 | 3774 | inactive |
| Prosalpha4T2 | 1 | 1.16e5 | 4707 | inactive |
| Miox | 1 | 1.26e5 | 7714 | inactive |
| CG30389 | 1 | 66074 | 3090 | inactive |
| CG30389 | 2 | 99401 | 4536 | inactive |
| CG4511 | 1 | 1.35e5 | 7164 | inactive |
| CG8441 | 1 | 85553 | 3806 | inactive |
| Spt7 | 1 | 1.51e5 | 6775 | inactive |
| Adar | 1 | 1.20e5 | 5503 | inactive |
| CG6659 | 1 | 1.74e5 | 5283 | inactive |
| CG7856 | 1 | 1.12e5 | 4523 | inactive |
| Tsp2A | 1 | 97816 | 5124 | inactive |
| cu | 1 | 1.52e5 | 7045 | inactive |
| cu | 2 | 1.41e5 | 6213 | inactive |
| CG33286 | 1 | 1.32e5 | 6873 | inactive |
| Rdh | 1 | 1.03e5 | 4140 | inactive |
| Rdh | 2 | 94769 | 4143 | inactive |
| Duba | 1 | 73743 | 3070 | inactive |
| CG17982 | 1 | 1.33e5 | 7168 | inactive |
| CG46441 | 1 | 63505 | 3665 | inactive |
| Rpn13 | 1 | 85583 | 4550 | inactive |
| CG5386 | 1 | 1.10e5 | 5851 | inactive |
| CG31141 | 1 | 74325 | 2010 | inactive |
| YL-1 | 1 | 2.29e5 | 147 | active |
| Obp83cd | 1 | 1.31e5 | 6330 | inactive |
| CG15035 | 1 | 1.11e5 | 5393 | inactive |
| CG11929 | 1 | 1.53e5 | 6255 | inactive |
| sisA | 1 | 1.18e5 | 5608 | inactive |
| Mst98Cb | 1 | 1.15e5 | 5893 | inactive |
| CG34165 | 1 | 94582 | 4044 | inactive |
| Hers | 1 | 1.59e5 | 5445 | inactive |
| Hers | 2 | 1.34e5 | 6345 | inactive |
| ND2 (retired record) | 1 | 1.33e5 | 7224 | inactive |
| CG5614 | 1 | 1.05e5 | 5518 | inactive |
| AOX4 | 1 | 1.12e5 | 5964 | inactive |
| CG32576 + UQCR-14 | 1 | 1.59e5 | 6053 | inactive |
| Uxs | 1 | 77287 | 3470 | inactive |
| Drsl4 | 1 | 1.35e5 | 3961 | inactive |
| CG4267 | 1 | 1.64e5 | 6038 | inactive |
| mspo | 1 | 97634 | 4286 | inactive |
| bcn92 | 1 | 77615 | 4813 | inactive |
| CG15719 | 1 | 6479 | 365 | inactive |
| CG42795 | 1 | 86525 | 4448 | inactive |
| CG42795 | 2 | 1.28e5 | 7935 | inactive |
| Rh50 | 1 | 69735 | 3432 | inactive |
| hpRNA:CR32207 | 1 | 87534 | 3915 | inactive |
| Patj | 1 | 72592 | 3530 | inactive |
| Nagk | 1 | 81443 | 3797 | inactive |
| CG3568 | 1 | 1.02e5 | 5502 | inactive |
| tobi | 1 | 1.01e5 | 5444 | inactive |
| CG10845 | 1 | 1.05e5 | 6079 | inactive |
| CG9344 | 1 | 93160 | 4177 | inactive |
| spg | 1 | 1.07e5 | 6428 | inactive |
| spg | 2 | 1.07e5 | 5799 | inactive |
| CG30440 | 1 | 1.54e5 | 5164 | inactive |
| CG30440 | 2 | 1.09e5 | 4672 | inactive |
| CG30440 | 3 | 1.27e5 | 4758 | inactive |
| Amy-p | 1 | 1.40e5 | 5687 | inactive |
| ko | 1 | 1.31e5 | 6841 | inactive |
| CG8613 | 1 | 2965 | 185 | inactive |
| NFAT | 1 | 81329 | 2379 | inactive |
| NFAT | 2 | 1.07e5 | 4954 | inactive |
| CG18262 | 1 | 1.43e5 | 5307 | inactive |
| CG13884 | 1 | 89685 | 3932 | inactive |
| CG13130 (retired record) | 1 | 1.40e5 | 5191 | inactive |
| dsx | 1 | 75661 | 3368 | inactive |
| dsx | 2 | 82315 | 3170 | inactive |
| CG1690 | 1 | 1.31e5 | 4169 | inactive |
| CG12347 | 1 | 1.33e5 | 8128 | inactive |
| Ccp84Ac | 1 | 1.33e5 | 6054 | inactive |
| CG43861 | 1 | 1.01e5 | 4311 | inactive |

12 entries from above in another layout:
gene knocked down | reagent no. | E2F firefly, rep 1 | Renilla normaliser, rep 1 | call
CG5614 | 1 | 1.05e5 | 5518 | inactive
AOX4 | 1 | 1.12e5 | 5964 | inactive
CG32576 + UQCR-14 | 1 | 1.59e5 | 6053 | inactive
Uxs | 1 | 77287 | 3470 | inactive
Drsl4 | 1 | 1.35e5 | 3961 | inactive
CG4267 | 1 | 1.64e5 | 6038 | inactive
mspo | 1 | 97634 | 4286 | inactive
bcn92 | 1 | 77615 | 4813 | inactive
CG15719 | 1 | 6479 | 365 | inactive
CG42795 | 1 | 86525 | 4448 | inactive
CG42795 | 2 | 1.28e5 | 7935 | inactive
Rh50 | 1 | 69735 | 3432 | inactive
